Laboratory results taken from the supplement of paper PMC7661543.
The effect of the compound repeats well; differences between the knockouts mostly do not.

Test system: BT-20
Test: relative cell number vs DMSO control (72 h) (% of DMSO); higher = less growth inhibition (more cells)
Method: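 QMAP-Seq: a pool of 5 breast cancer cell lines (ZR-75-1, SKBR3, HCC-38, MDA-MB-231, BT-20), each carrying 12 doxycycline-inducible Cas9 sgRNA perturbations (11 knockouts plus non-targeting sgNT), was treated with compounds for 72 h at four 10-fold doses (10 nM-10 uM or 1 nM-1 uM range). Barcodes were amplified and sequenced, and cell number was interpolated from 293T spike-in standard curves. The result is expressed as % of the median of DMSO wells. Two biological replicates.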

C=CCc1cccc(/C=N/NC(=O)CN2CCN(Cc3ccccc3)CC2)c1O [PAC1]
Settings | relative cell number
sgRNA knockout: sgATF3, 10 nM | 93.4
sgRNA knockout: sgATF3, 100 nM | 93.6
sgRNA knockout: sgATF3, 1000 nM | 80.5
sgRNA knockout: sgATF3, 10000 nM | 43.3
sgRNA knockout: sgATF4, 10 nM | 97.4
sgRNA knockout: sgATF4, 100 nM | 91.6
sgRNA knockout: sgATF4, 1000 nM | 92.7
sgRNA knockout: sgATF4, 10000 nM | 44.3
sgRNA knockout: sgATF6, 10 nM | 94.3
sgRNA knockout: sgATF6, 100 nM | 74.1
sgRNA knockout: sgATF6, 1000 nM | 93.75
sgRNA knockout: sgATF6, 10000 nM | 40.95
sgRNA knockout: sgATG7, 10 nM | 88.8
sgRNA knockout: sgATG7, 100 nM | 87.6
sgRNA knockout: sgATG7, 1000 nM | 80.8
sgRNA knockout: sgATG7, 10000 nM | 41.7
sgRNA knockout: sgERN1, 10 nM | 96.062
sgRNA knockout: sgERN1, 100 nM | 89.3
sgRNA knockout: sgERN1, 1000 nM | 105
sgRNA knockout: sgERN1, 10000 nM | 43
sgRNA knockout: sgHSF1, 10 nM | 102
sgRNA knockout: sgHSF1, 100 nM | 86.1
sgRNA knockout: sgHSF1, 1000 nM | 92.2
sgRNA knockout: sgHSF1, 10000 nM | 45.9
sgRNA knockout: sgHSF2, 10 nM | 83.6
sgRNA knockout: sgHSF2, 100 nM | 96.7
sgRNA knockout: sgHSF2, 1000 nM | 75.6
sgRNA knockout: sgHSF2, 10000 nM | 39.8
sgRNA knockout: sgKEAP1, 10 nM | 97
sgRNA knockout: sgKEAP1, 100 nM | 91.6
sgRNA knockout: sgKEAP1, 1000 nM | 81.22
sgRNA knockout: sgKEAP1, 10000 nM | 35.2
sgRNA knockout: sgNFE2L2, 10 nM | 98.9
sgRNA knockout: sgNFE2L2, 100 nM | 90.38
sgRNA knockout: sgNFE2L2, 1000 nM | 94
sgRNA knockout: sgNFE2L2, 10000 nM | 38.7
sgRNA knockout: sgSLC35F2, 10 nM | 88.6
sgRNA knockout: sgSLC35F2, 100 nM | 80.2
sgRNA knockout: sgSLC35F2, 1000 nM | 88.9
sgRNA knockout: sgSLC35F2, 10000 nM | 51.7
sgRNA knockout: sgXBP1, 10 nM | 99.6
sgRNA knockout: sgXBP1, 100 nM | 81.8
sgRNA knockout: sgXBP1, 1000 nM | 99.1
sgRNA knockout: sgXBP1, 10000 nM | 44.6

Clc1ccc(C2(c3ccc(-c4cn[nH]c4)cc3)CCNCC2)cc1 [AT7867]
Settings | relative cell number
sgRNA knockout: sgATF3, 10 nM | 91.5
sgRNA knockout: sgATF3, 100 nM | 111
sgRNA knockout: sgATF3, 1000 nM | 77.6
sgRNA knockout: sgATF3, 10000 nM | 17.111
sgRNA knockout: sgATF4, 10 nM | 72.7
sgRNA knockout: sgATF4, 100 nM | 129
sgRNA knockout: sgATF4, 1000 nM | 77.3
sgRNA knockout: sgATF4, 10000 nM | 26.1
sgRNA knockout: sgATF6, 10 nM | 92.6
sgRNA knockout: sgATF6, 100 nM | 95
sgRNA knockout: sgATF6, 1000 nM | 72.6
sgRNA knockout: sgATF6, 10000 nM | 21.1
sgRNA knockout: sgATG7, 10 nM | 98.9
sgRNA knockout: sgATG7, 100 nM | 109
sgRNA knockout: sgATG7, 1000 nM | 62.5
sgRNA knockout: sgATG7, 10000 nM | 26.3
sgRNA knockout: sgERN1, 10 nM | 99
sgRNA knockout: sgERN1, 100 nM | 113
sgRNA knockout: sgERN1, 1000 nM | 85.5
sgRNA knockout: sgERN1, 10000 nM | 23.4
sgRNA knockout: sgHSF1, 10 nM | 92.6
sgRNA knockout: sgHSF1, 100 nM | 105
sgRNA knockout: sgHSF1, 1000 nM | 84.3
sgRNA knockout: sgHSF1, 10000 nM | 22.5
sgRNA knockout: sgHSF2, 10 nM | 89.62
sgRNA knockout: sgHSF2, 100 nM | 97.8
sgRNA knockout: sgHSF2, 1000 nM | 84.5
sgRNA knockout: sgHSF2, 10000 nM | 27
sgRNA knockout: sgKEAP1, 10 nM | 82.6
sgRNA knockout: sgKEAP1, 100 nM | 99.7
sgRNA knockout: sgKEAP1, 1000 nM | 93.9
sgRNA knockout: sgKEAP1, 10000 nM | 24.5
sgRNA knockout: sgNFE2L2, 10 nM | 97.1
sgRNA knockout: sgNFE2L2, 100 nM | 123
sgRNA knockout: sgNFE2L2, 1000 nM | 72.6
sgRNA knockout: sgNFE2L2, 10000 nM | 25.13
sgRNA knockout: sgSLC35F2, 10 nM | 108
sgRNA knockout: sgSLC35F2, 100 nM | 99
sgRNA knockout: sgSLC35F2, 1000 nM | 82.8
sgRNA knockout: sgSLC35F2, 10000 nM | 27.9
sgRNA knockout: sgXBP1, 10 nM | 98.6
sgRNA knockout: sgXBP1, 100 nM | 125
sgRNA knockout: sgXBP1, 1000 nM | 90.4
sgRNA knockout: sgXBP1, 10000 nM | 26.3

COc1cccc2c1C(=O)c1c(O)c3c(c(O)c1C2=O)C[C@@](O)(C(=O)CO)C[C@@H]3O[C@H]1C[C@H](N)[C@H](O)[C@H](C)O1 [Doxorubicin]
Settings | relative cell number
sgRNA knockout: sgATF3, 10 nM | 98.5
sgRNA knockout: sgATF3, 100 nM | 50.05
sgRNA knockout: sgATF3, 1000 nM | 30.6
sgRNA knockout: sgATF3, 10000 nM | 19.4
sgRNA knockout: sgATF4, 10 nM | 86.1
sgRNA knockout: sgATF4, 100 nM | 59.4
sgRNA knockout: sgATF4, 1000 nM | 27.7
sgRNA knockout: sgATF4, 10000 nM | 18.2
sgRNA knockout: sgATF6, 10 nM | 86.8
sgRNA knockout: sgATF6, 100 nM | 57.7
sgRNA knockout: sgATF6, 1000 nM | 32.9
sgRNA knockout: sgATF6, 10000 nM | 20.7
sgRNA knockout: sgATG7, 10 nM | 84.6
sgRNA knockout: sgATG7, 100 nM | 62
sgRNA knockout: sgATG7, 1000 nM | 31.9
sgRNA knockout: sgATG7, 10000 nM | 21.1
sgRNA knockout: sgERN1, 10 nM | 84
sgRNA knockout: sgERN1, 100 nM | 50.1
sgRNA knockout: sgERN1, 1000 nM | 31.6
sgRNA knockout: sgERN1, 10000 nM | 15.2
sgRNA knockout: sgHSF1, 10 nM | 90.1
sgRNA knockout: sgHSF1, 100 nM | 44.1
sgRNA knockout: sgHSF1, 1000 nM | 27.6
sgRNA knockout: sgHSF1, 10000 nM | 21.9
sgRNA knockout: sgHSF2, 10 nM | 82.2
sgRNA knockout: sgHSF2, 100 nM | 47.1
sgRNA knockout: sgHSF2, 1000 nM | 33.1
sgRNA knockout: sgHSF2, 10000 nM | 18
sgRNA knockout: sgKEAP1, 10 nM | 88.8
sgRNA knockout: sgKEAP1, 100 nM | 56.1
sgRNA knockout: sgKEAP1, 1000 nM | 26.9
sgRNA knockout: sgKEAP1, 10000 nM | 20.9
sgRNA knockout: sgNFE2L2, 10 nM | 84
sgRNA knockout: sgNFE2L2, 100 nM | 47.48
sgRNA knockout: sgNFE2L2, 1000 nM | 27.4
sgRNA knockout: sgNFE2L2, 10000 nM | 21.4
sgRNA knockout: sgSLC35F2, 10 nM | 91.8
sgRNA knockout: sgSLC35F2, 100 nM | 51.5
sgRNA knockout: sgSLC35F2, 1000 nM | 34.9
sgRNA knockout: sgSLC35F2, 10000 nM | 19.89
sgRNA knockout: sgXBP1, 10 nM | 80.8
sgRNA knockout: sgXBP1, 100 nM | 52.3
sgRNA knockout: sgXBP1, 1000 nM | 29.2
sgRNA knockout: sgXBP1, 10000 nM | 23.9
